In the supplement of paper PMC8149375:

Columns and labels:
Conditions in all cases: treatment: drug + dasatinib (fixed dose, not stated); 5 days
786-O [1] = test: GI50 of drug in presence of dasatinib; higher = less potent
Method: (§1)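 Primary HTS combination arm: 8 RCC cell lines treated with 8 doses (up to 10 uM) of each library drug plus a fixed dose of dasatinib (dose not stated) for 5 days; viability read by CellTiter-Glo and normalised to DMSO. GI50 was fitted with XLfit, AUC is the area under the dose-response curve, and minimum viability is the lowest fraction of DMSO viability across doses.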

ACHN [2] = test: as above
Method: as §1

769-P [3] = test: as above
Method: as §1

CAKI-1 [4] = test: as above
Method: as §1

UO-31 [5] = test: as above
Method: as §1

SN12C [6] = test: as above
Method: as §1

A498 [7] = test: as above
Method: as §1

TK-10 [8] = test: as above
Method: as §1

ACHN [9] = test: AUC of dose-response viability curve, drug + dasatinib, normalised to DMSO (arbitrary (AUC of normalised viability)); higher = less growth inhibition
Method: as §1

769-P [10] = test: as above
Method: as §1

UO-31 [11] = test: as above
Method: as §1

SN12C [12] = test: as above
Method: as §1

A498 [13] = test: as above
Method: as §1

TK-10 [14] = test: as above
Method: as §1

786-O [15] = test: minimum viability across doses, drug + dasatinib, relative to DMSO (fraction); higher = less growth inhibition
Method: as §1

ACHN [16] = test: as above
Method: as §1

769-P [17] = test: as above
Method: as §1

CAKI-1 [18] = test: as above
Method: as §1

UO-31 [19] = test: as above
Method: as §1

SN12C [20] = test: as above
Method: as §1

A498 [21] = test: as above
Method: as §1

TK-10 [22] = test: as above
Method: as §1

Cc1ccccc1-n1c(Cn2nc(-c3cccc(O)c3)c3c(N)ncnc32)nc2cccc(C)c2c1=O [PIK-294] + Cc1nc(Nc2ncc(C(=O)Nc3c(C)cccc3Cl)s2)cc(N2CCN(CCO)CC2)n1 [dasatinib]
GI50 of drug (786-O [1]): 1.01 µM
GI50 of drug (ACHN [2]): 1.28 µM
GI50 of drug (769-P [3]): 3.67 µM
GI50 of drug (CAKI-1 [4]): 1.27 µM
GI50 of drug (UO-31 [5]): 9.93 µM
GI50 of drug (SN12C [6]): > 10 µM
GI50 of drug (A498 [7]): > 10 µM
GI50 of drug (TK-10 [8]): > 10 µM
AUC of dose-response viability curve (ACHN [9]): 2.09
AUC of dose-response viability curve (769-P [10]): 2.35
AUC of dose-response viability curve (UO-31 [11]): 3.99
AUC of dose-response viability curve (SN12C [12]): 2.47
AUC of dose-response viability curve (A498 [13]): 3.32
AUC of dose-response viability curve (TK-10 [14]): 2.54
minimum viability across doses (786-O [15]): 0.367
minimum viability across doses (ACHN [16]): 0.36
minimum viability across doses (769-P [17]): 0.333
minimum viability across doses (CAKI-1 [18]): 0.273
minimum viability across doses (UO-31 [19]): 0.495
minimum viability across doses (SN12C [20]): 0.645
minimum viability across doses (A498 [21]): 0.826
minimum viability across doses (TK-10 [22]): 0.647
